These results are taken from PMC6458997, “Deciphering the Molecular Mechanism Underpinning Phage Arbitrium Communication Systems” (Molecular Cell, 2019).

The series deals with AimR (SPbeta) (UniProt O31927). Put plainly: EMSA. The note with it: palindrome mutation, affects or abolishes; EMSA: 50 mM HEPES pH 7.5, 5 mM MgCl2, 75 mM NaCl, 0.5 mM EDTA; 0.4 uM DNA, 4 uM AimR; 10 min at room temperature; recombinant protein; residues 1-386; protein details: N-terminal 6xHis-TEV, cleaved.

The exact form of at least one protein or probe is not confirmed. The comparison behind a weaker result is the experiment's own reference, which may not be listed here. At least one verdict rests on a figure or table, not on a statement of the authors.

As for “GTTGATTACTAGATGTTATTAAAACCTAATATTTAAGTAATGGCC (double strand) [Mut4]”, the binding result is on record as “binds more weakly”.
